At least one structure is not confirmed: it was looked up by name or label, or the drawing left a doubt.
What was measured:
[1] = system: vitiligo skin cells; test: Topical treatment of vitiligo skin with cosmeceutical rapamycin composition; type: in vivo; details: twice a day application of 2.5 uM cosmeceutical rapamycin composition
[2] = system: Human Hepatocarcinoma, HH, (T-cell lymphoma) cells; test: Western blot of protein expression in HH cells treated with rapamycin; type: cell-based; details: rapamycin 0.1-100 uM

For CO[C@H]1C[C@@H]2CC[C@@H](C)[C@@](O)(O2)C(=O)C(=O)N2CCCC[C@H]2C(=O)O[C@H]([C@H](C)C[C@@H]2CC[C@@H](O)[C@H](OC)C2)CC(=O)[C@H](C)/C=C(\C)[C@@H](O)[C@@H](OC)C(=O)[C@H](C)C[C@H](C)/C=C/C=C/C=C/1C [rapamycin, Rapamycin], the “response of vitiligo skin cells to treatment” value [1] was “reduction of the discoloration and reduction in the progression of the disease”, the “expression of pAcc (phosphorylated acetyl-CoA carboxylase)” value [2] was “increased expression” and the “expression of pS6 (phosphorylated ribosomal protein S6)” value [2] was “decreased expression”. The “expression of peEF2 (phosphorylated eukaryotic elongation factor 2)” value [2] was “slightly increased expression”.

Source: patent US8946256B2, “Compositions and methods for treatment of vitiligo” (Biocosmeceuticals, LLC, priority 2009, dated 2015)
